The source of these data is publication PMC10617771.

These are yes or no findings as the source states them, for the method shown. In cells and extracts the contact can be indirect. Binding can be weak; no strength is given. Sequences can lack the tags named with a protein.

Assay [1] addresses T1, Myc-tagged mouse DUSP8 (mouse) (UniProt O09112).
T1 sequence: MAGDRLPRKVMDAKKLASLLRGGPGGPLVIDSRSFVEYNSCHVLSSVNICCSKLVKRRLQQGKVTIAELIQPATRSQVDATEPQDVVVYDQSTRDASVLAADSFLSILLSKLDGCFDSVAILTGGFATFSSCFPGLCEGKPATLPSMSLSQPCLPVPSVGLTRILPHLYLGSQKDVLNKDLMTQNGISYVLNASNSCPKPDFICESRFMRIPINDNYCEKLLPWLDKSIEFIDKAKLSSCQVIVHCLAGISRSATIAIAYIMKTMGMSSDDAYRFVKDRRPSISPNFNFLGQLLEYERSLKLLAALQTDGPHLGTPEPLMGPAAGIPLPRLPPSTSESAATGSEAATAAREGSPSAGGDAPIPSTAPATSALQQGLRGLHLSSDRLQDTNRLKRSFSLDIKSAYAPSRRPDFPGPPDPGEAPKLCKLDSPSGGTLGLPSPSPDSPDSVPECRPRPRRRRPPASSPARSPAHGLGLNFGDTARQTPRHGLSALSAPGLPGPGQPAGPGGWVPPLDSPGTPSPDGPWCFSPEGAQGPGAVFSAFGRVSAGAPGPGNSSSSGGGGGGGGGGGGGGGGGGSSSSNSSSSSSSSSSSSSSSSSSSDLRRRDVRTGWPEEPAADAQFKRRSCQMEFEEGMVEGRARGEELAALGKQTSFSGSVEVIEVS
The assay can be described thus: co-IP; Myc-tagged DUSP8 with Flag-tagged Pur-α in lysates of HEK293T transfectants.

The next assay addresses T2, YFP-fused DUSP8 (mouse) (UniProt O09112).
T2 sequence: T1 sequence
The assay can be described thus: FRET or BRET; FRET in HEK293T cells transfected with CFP-fused Pur-α and YFP-fused DUSP8; detects interaction < 10 nm. Background: In BRET a luciferase serves as donor, and the signal depends on an acceptor being close.

On to 3xFlag-tagged human Pur-α, for which the binding entry in assay [1] is “binds”.
Consider CFP-fused Pur-α (human), for which, in the assay with YFP-fused DUSP8 (mouse), the binding entry is “binds”.
